# Library screen at single concentrations

By UniProt entry, the sequences of proteins in these tests, tags left out. Residues count along the entry.
UniProt Q4DA54, 1-478: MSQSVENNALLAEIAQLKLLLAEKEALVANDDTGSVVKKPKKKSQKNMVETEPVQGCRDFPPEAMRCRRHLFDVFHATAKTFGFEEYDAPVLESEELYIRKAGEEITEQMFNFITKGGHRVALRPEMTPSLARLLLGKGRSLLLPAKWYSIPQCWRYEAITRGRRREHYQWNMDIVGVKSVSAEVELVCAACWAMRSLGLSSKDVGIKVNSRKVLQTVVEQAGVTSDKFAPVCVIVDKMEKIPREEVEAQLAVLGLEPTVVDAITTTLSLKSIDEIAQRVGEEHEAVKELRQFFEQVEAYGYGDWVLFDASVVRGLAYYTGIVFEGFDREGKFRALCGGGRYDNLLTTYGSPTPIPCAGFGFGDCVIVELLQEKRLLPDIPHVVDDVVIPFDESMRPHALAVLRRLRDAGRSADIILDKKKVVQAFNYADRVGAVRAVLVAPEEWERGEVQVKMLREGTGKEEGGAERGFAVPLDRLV
UniProt P9WFT3, whole entry: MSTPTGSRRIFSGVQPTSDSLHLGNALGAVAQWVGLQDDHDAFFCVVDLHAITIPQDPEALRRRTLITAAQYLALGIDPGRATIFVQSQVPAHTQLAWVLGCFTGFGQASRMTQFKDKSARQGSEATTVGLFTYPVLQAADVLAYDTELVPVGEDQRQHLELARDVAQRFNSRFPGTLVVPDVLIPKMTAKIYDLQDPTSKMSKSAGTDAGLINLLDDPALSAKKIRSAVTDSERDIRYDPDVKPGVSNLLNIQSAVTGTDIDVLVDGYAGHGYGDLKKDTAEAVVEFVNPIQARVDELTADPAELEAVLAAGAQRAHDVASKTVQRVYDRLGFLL
UniProt I6X8D2, whole entry: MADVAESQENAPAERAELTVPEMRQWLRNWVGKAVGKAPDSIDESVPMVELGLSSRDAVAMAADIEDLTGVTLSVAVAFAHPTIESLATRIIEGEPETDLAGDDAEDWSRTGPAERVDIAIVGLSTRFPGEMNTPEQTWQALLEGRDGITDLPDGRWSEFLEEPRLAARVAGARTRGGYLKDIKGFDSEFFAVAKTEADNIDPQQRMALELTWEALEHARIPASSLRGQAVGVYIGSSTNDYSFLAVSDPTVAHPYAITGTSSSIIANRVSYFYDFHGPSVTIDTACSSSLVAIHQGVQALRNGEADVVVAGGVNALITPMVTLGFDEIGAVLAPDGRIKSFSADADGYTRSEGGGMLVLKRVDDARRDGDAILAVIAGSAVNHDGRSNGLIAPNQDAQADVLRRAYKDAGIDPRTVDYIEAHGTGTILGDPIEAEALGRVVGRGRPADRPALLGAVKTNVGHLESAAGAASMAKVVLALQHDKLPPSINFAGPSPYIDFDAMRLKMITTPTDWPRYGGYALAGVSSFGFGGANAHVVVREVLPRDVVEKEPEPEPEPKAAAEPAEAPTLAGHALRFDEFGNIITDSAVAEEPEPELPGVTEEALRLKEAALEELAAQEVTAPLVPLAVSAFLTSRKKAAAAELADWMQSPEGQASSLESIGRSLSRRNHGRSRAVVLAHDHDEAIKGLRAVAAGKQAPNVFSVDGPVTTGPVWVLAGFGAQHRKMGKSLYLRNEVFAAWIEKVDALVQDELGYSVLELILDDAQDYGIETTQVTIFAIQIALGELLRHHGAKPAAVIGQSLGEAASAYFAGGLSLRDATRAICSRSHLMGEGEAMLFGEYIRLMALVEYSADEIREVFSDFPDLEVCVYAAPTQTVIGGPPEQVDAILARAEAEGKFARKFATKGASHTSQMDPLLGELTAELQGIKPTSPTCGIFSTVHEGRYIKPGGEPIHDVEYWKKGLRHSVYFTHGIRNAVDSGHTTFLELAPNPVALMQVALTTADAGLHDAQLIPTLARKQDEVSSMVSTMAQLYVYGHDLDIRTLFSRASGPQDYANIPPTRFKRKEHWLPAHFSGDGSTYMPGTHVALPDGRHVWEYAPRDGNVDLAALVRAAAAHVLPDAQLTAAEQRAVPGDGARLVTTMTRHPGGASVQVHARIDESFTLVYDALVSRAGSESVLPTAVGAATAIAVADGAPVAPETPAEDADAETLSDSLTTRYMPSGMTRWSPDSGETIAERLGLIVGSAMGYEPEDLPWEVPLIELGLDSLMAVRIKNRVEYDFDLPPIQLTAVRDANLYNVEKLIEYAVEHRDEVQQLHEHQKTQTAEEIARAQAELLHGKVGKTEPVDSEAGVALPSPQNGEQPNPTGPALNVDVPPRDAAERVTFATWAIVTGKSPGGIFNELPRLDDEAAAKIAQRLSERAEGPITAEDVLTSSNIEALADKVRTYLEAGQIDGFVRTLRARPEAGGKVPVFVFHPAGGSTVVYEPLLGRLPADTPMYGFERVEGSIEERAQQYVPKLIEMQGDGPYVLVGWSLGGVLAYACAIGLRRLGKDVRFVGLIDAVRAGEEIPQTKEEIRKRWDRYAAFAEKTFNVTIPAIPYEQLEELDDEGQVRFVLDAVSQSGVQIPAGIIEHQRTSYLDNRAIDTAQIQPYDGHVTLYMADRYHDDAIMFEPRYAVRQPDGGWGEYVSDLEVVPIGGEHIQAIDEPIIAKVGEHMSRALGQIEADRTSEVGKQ
UniProt Q8IDJ8, 1-583: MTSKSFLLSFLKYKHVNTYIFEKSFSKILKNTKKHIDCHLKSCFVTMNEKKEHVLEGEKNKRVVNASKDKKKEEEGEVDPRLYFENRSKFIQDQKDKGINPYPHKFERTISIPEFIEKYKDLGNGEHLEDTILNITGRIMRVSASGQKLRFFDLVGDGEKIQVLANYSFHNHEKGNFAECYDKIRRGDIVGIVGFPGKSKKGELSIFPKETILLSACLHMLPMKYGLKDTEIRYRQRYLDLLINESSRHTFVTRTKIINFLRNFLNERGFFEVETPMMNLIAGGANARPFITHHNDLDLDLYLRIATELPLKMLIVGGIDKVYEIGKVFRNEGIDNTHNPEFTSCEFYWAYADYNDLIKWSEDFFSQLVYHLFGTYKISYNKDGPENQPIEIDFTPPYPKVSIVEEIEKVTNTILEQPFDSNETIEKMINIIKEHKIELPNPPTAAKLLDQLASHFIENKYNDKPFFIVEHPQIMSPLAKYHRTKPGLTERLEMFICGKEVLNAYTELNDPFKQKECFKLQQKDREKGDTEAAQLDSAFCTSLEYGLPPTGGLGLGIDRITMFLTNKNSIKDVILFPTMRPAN

Data taken from ChEMBL document CHEMBL3988442, “University of Dundee, Small-Polar-MMV Screening Library” (2021).

TcHisRS: 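Enzyme assay of histidyl-tRNA synthetase; the read-out is not stated. Target: Histidine-tRNA ligase, Trypanosoma cruzi CL Brener (UniProt Q4DA54). Tested at 30 µM. The record gives no direction; compounds that gave an IC50 in retests scored well above the rest, so higher reads as stronger inhibition. Size under these conditions: about 69,000 compounds, about 31 of them at 50% or above in at least one test.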
MtTrpRS: 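Enzyme assay of tryptophanyl-tRNA synthetase; the read-out is not stated. Target: Tryptophan-tRNA ligase, Mycobacterium tuberculosis (UniProt P9WFT3). Tested at 10 µM. Higher most likely means stronger inhibition; the record gives no direction and few retests gave an IC50. Size under these conditions: about 65,000 compounds, about 64 of them at 50% or above in at least one test.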
Pks13 thioesterase: 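Polyketide synthase Pks13, Mycobacterium tuberculosis (UniProt I6X8D2). Enzyme assay of the thioesterase domain of polyketide synthase 13; the read-out is not stated. Compounds at 30 µM. The record gives no direction; the compounds picked for IC50 retests had high values, so higher reads as stronger inhibition. Of about 67,000 compounds tested this way, about 300 (0.46%) reached 50% or more in at least one test.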
PfKRS1: 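Lysine-tRNA ligase, Plasmodium falciparum 3D7 (UniProt Q8IDJ8). Enzyme assay of the cytosolic lysyl-tRNA synthetase in 384-well plates, read by luminescence. Tested at 30 µM. Direction is inferred from only a few compounds that gave an IC50; most scored high, so higher reads as stronger inhibition. About 69,000 compounds were tested under these conditions; 0.071% (about 49) showed 50% or more at least once.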
Toxoplasma: 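Assay of Toxoplasma gondii numbers, read through their beta-galactosidase reporter with a colour substrate. Compounds at 10 µM. Higher reads as fewer parasites (inferred from which compounds were picked for retests). Size under these conditions: about 67,000 compounds, about 260 of them at 50% or above in at least one test.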

Values are the deposited “Percent Effect”, in %. How 0% and 100% were set is not recorded. Most values in the screen are low, and negative values occur. Compounds were drawn at random from those tested, without regard to their results. A dash means the value is not listed here; it may have been measured.

| # | structure | TcHisRS | MtTrpRS | Pks13 thioesterase | PfKRS1 | Toxoplasma |
|---|---|---|---|---|---|---|
| 1 | `Cc1nc(N2Cc3cnn(Cc4ccc(F)cc4)c3C2)no1` | 0% | 1.698% | 6.419% | 1.312% | 2.813% |
| 2 | `Cc1nn(C)c(C)c1C1CCCN1C(=O)c1cnc2onc(C)c2c1` (stereo not given) | 1.729% | -4.802% | -27.81% | 1.701% | -32.51% |
| 3 | `Cc1cnc(CNC(=O)NCc2cccnc2N(C)C)s1` | -0.7634% | -2.478% | -4.201% | 0.5449% | -2.753% |
| 4 | `Cc1ccccc1CS(=O)(=O)c1nnc(N2CCOCC2)s1` | 4.217% | -2.517% | -5.225% | -1.464% | 0.5031% |
| 5 | `O=C(CNC(=O)Nc1c(F)cc(F)cc1-c1ccccc1)NC1CC1` | 4% | 3.099% | -8.479% | 1.6% | -13.3% |
| 6 | `Cc1ccc(N2CCCC(NC(=O)Nc3cnn(C)c3)C2=O)cc1` (stereo not given) | 4.598% | 18.16% | 13.46% | 1.189% | -3.743% |
| 7 | `O=C(NC1CCS(=O)(=O)C1)c1cn(C2CC2)c(=O)c2ccccc12` (stereo not given) | 6.931% | 0.3236% | -2.129% | 7.024% | -21.79% |
| 8 | `CCc1nc(CC(=O)N2CCC(C(=O)N3CCCC3)CC2)cs1` | 5.263% | -3.725% | -10.1% | 2.637% | -13.55% |
| 9 | `CC(NC(=O)COc1nc(C(C)(C)C)no1)c1ccco1` (stereo not given) | 0% | 0.6966% | -7.61% | -3.423% | -5.078% |
| 10 | `CC(=O)N1CC2(CCN(Cc3ccc(Cl)cc3)C2)Cc2ccccc21` (stereo not given) | 6.509% | -0.7779% | -24.45% | -1.914% | 20.3% |
| 11 | `CC(=O)N(Cc1ncc(C(C)C)o1)C1CCN(Cc2ncc[nH]2)C1` (stereo not given) | 1.149% | -3.013% | -6.297% | -1.37% | 1.939% |
| 12 | `Cn1c2ccccc2c2ncn(CCN3CCOCC3)c(=O)c21` | 7% | -3.226% | -11.52% | -4.707% | 14.58% |
| 13 | `O=C(NCCC1CCN(CC(F)(F)F)CC1)C1COCCO1` (stereo not given) | 5.752% | -4.271% | -22.42% | 2.704% | 13.64% |
| 14 | `COCCN(C)C(C)Cc1ccccc1OC` (stereo not given) | 1.724% | -6.734% | -5.894% | 2.032% | -7.128% |
| 15 | `Fc1cccnc1CN1CCCCC1c1ccn2ccnc2n1` (stereo not given) | -2.151% | -0.5833% | 20.11% | 3.152% | -8.924% |
| 16 | `CC(C)CC(NC(=O)c1cccc(F)c1F)C(=O)Nc1cc[nH]n1` (stereo not given) | 3.784% | -4.312% | -19.69% | 1.539% | 11.78% |
| 17 | `CCOc1c(Cl)cc(/C=C/c2ncc(C(=O)O)s2)cc1OC` | -0.2865% | 6.01% | 23.75% | 2.135% | -10.59% |
| 18 | `CC(Cc1cncs1)Nc1ncnc2cccc(F)c12` (stereo not given) | 3.247% | -0.551% | -8.357% | 4.221% | 6.151% |
| 19 | `O[C@@H]1C[C@@H](c2nc(-c3ccc(F)cc3)no2)N(C2CCOCC2)C1` | 7.609% | 1.29% | -25.62% | 3.632% | 2.76% |
| 20 | `O=C1CC(c2ccsc2)c2c(n(C3CCOCC3)[nH]c2=O)N1` (stereo not given) | -1.639% | 1.407% | -19.13% | 3.464% | 2.51% |
| 21 | `CCc1ccc(OCC(O)CN2CCN(CCO)CC2)cc1.Cl.Cl` (stereo not given) | - | - | - | - | 2.874% |
| 22 | `CN1CCCC[C@@H]2[C@H]1[C@@H](c1ccccc1)CCN2S(=O)(=O)N1CCCC1` | 11.19% | 1.101% | -10.97% | -1.098% | - |
| 23 | `CCc1oc(C(=O)NC(C)Cc2cnccn2)cc1CN1CCCC1` (stereo not given) | 7.463% | 2.295% | 2.93% | -0.477% | -14.94% |
| 24 | `[H][C@@]12CS(=O)(=O)C[C@]1([H])N(Cc1cc(Cl)cc(Cl)c1)CCN2CCO` | - | - | - | - | -3.004% |
| 25 | `N#Cc1ccc(OC2CCN(CC(=O)NCC3CCCO3)CC2)cc1` (stereo not given) | 4.762% | 0.2601% | -20.07% | 5.148% | -5.486% |
| 26 | `Cc1cnn(CC(C)NCc2nc(-c3ccco3)no2)c1` (stereo not given) | 0.813% | 13.46% | -19.54% | 2.287% | 5.001% |
| 27 | `Cc1cccc(CNC(=O)Nc2ccn(CCN(C)C)n2)c1` | 0.5525% | 0.1032% | -21.87% | 2.911% | 0.6732% |
| 28 | `COC(C(=O)NCc1c(C)nc2cc(=O)[nH]n2c1C)c1ccccc1` (stereo not given) | 12.1% | 5.954% | -29.38% | 4.185% | 7.443% |
| 29 | `CN(C)c1cccc(C(=O)Nc2cn(C)c(=O)n(C)c2=O)c1` | 10.39% | -2.374% | -42.55% | 2.904% | 8.169% |
| 30 | `CCOc1ccccc1C(=O)Nn1c(C)cc(C)cc1=O` | 3.468% | - | 10.68% | 2.11% | -16.11% |
| 31 | `Cc1nn(C)c(C)c1C1CCCN1C(=O)c1ccc(C(N)=O)s1` (stereo not given) | 3.867% | 10.12% | -1.879% | -4.227% | 5.164% |

Some entries from above, unchanged:

{"structure": "Cn1c2ccccc2c2ncn(CCN3CCOCC3)c(=O)c21", "TcHisRS": 7, "MtTrpRS": -3.226, "Pks13 thioesterase": -11.52, "PfKRS1": -4.707, "Toxoplasma": 14.58}
{"structure": "CCc1nc(CC(=O)N2CCC(C(=O)N3CCCC3)CC2)cs1", "TcHisRS": 5.263, "MtTrpRS": -3.725, "Pks13 thioesterase": -10.1, "PfKRS1": 2.637, "Toxoplasma": -13.55}